These are yes or no findings as the source states them, for the method shown. In cells and extracts the contact can be indirect. Here binding means that the protein was enriched with, or labelled near, the bait; the list need not be complete.

In article PMC11087964 one finds binding data, which are given here for five molecules.

The assay has as its target Mst4 overexpressed from adenovirus (AdMST4) in neonatal rat ventricular cardiomyocytes (rat). The assay can be described thus: affinity purification with mass spectrometry; Co-IP of Mst4 from NRVCM after adenoviral LacZ or Mst4 overexpression, in absence or presence of the kinase inhibitor hesperadin; eluates (n = 2) analysed by LC-MS/MS; ratios of MST4 to LacZ samples.

B1: junction plakoglobin (protein, UniProt Q6P0K8 1-745)
chain: MEVMNLIEQPIKVTEWQQTYTYDSGIHSGVNTCVPSVSSKGLLDEDDTCGRQYTLKKTTTYTQGVPQSQGDLEYQMSTTARAKRVREAMCPGVSGEDSSLLLATQVEGQTTNLQRLAEPSQLLKSAIVHLINYQDDAELATRALPELTKLLNDEDPVVVTKAAMIVNQLSKKEASRRALMGSPQLVAAVVRTMQNTSDLDTARCTTSILHNLSHHREGLLAIFKSGGIPALVRMLSSPVESVLFYAITTLHNLLLYQEGAKMAVRLADGLQKMVPLLNKNNPKFLAITTDCLQLLAYGNQESKLIILANGGPQGLVQIMRNYSYEKLLWTTSRVLKVLSVCPSNKPAIVEAGGMQALGKHLTSNSPRLVQNCLWTLRNLSDVATKQEGLENVLKILVNQLSVDDVNVLTCATGTLSNLTCNNSKNKTLVTQNSGVEALIHAILRAGDKDDITEPAVCALRHLTSRHPEAEMAQNSVRLNYGIPAIVKLLNQPNQWPLVKATIGLIRNLALCPANHAPLQEAAVIPRLVQLLVKAHQDAQRHVAAGTQQPYTDGVRMEEIVEGCTGALHILARDPMNRMEIFRLNTIPLFVQLLYSSVENIQRVAAGVLCELAQDKEAADAIDAEGASAPLMELLHSRNEGTATYAAAVLFRISEDKNPDYRKRVSVELTNSLFKHDPAAWEAAQSMIPINEPYADDMDATYRPMYSSDVPLDPLDMHMDMDGDYPMDTYSDGLRPPYPAADHMLA
Take B1: the binding result is recorded as “binds”.

B2: striatin (protein, UniProt P70483 1-780)
chain: MDEQAGPGVFFSNNHPGAGGAKGLGPLAEAAAAGDGAAAAGAARAQYSLPGILHFLQHEWARFEVERAQWEVERAELQAQIAFLQGERKGQENLKKDLVRRIKMLEYALKQERAKYHKLKYGTELNQGDMKPPSYDSDEGNETEVQPQQNSQFMWKQGRQLLRQYLQEVGYTDTILDVKSKRVRALLGFSSDVTDREDDKNQDSVINGTEAEVKETAMIGKSELTDSASVLDNFKFLENAAADFSDEDEDEDIDGREKSVIDTSTIVRKKPLPDTSEDRDTKEALKEFDFLVASEEGDNESRSAGDGTDWEKEDQCLTPERWNVDQGVITRLKEQYKKERKGKKGVKRPNRSKLQDMLANLRDVDELPSLQPSVGSPSRPSSSRLPEQDISRADEVEALTFPPSSGKSFIMGADEALESELGLGELAGLTVANEADSLAYDIANNKDALRKTWNPKFTLRSHFDGIRALAFHPIEPVLITASEDHTLKMWNLQKTAPAKKSTSLDVEPIYTFRAHKGPVLCVVMSSNGEQCYSGGTDGLIQSWSTTNPNVDPYDSYDPSVLRGPLLGHTDAVWGLAYSAAHQRLLSCSADGTLRLWTTTEVAPALTVFNDNQELGIPASVDLVSSDPSHMVASFSKGYTSIFNMETQQRILTLESNVDSTASSSCQINRVISHPTLPISITAHEDRHIKFYDNNTGKLIHSMVAHLEAVTSLAVDPNGLYLMSGSHDCSIRLWNLESKTCIQEFTAHRKKFEESIHDVAFHPSKCYIASAGADALAKVFV
Consider B2, for which the binding result was “binds”.

B3: sarcolemma-associated protein (Slmap) (protein, UniProt P0C219 1-858)
chain: MPSALAIFTCRPNSHPFQERHVYLDEPIKIGRSVARCRPAQNNATFDCKVLSRNHALVWFDHKTSKFYLQDTKSSNGTFINSQRLSRGSEESPPCEILSGDIIQFGVDVTENTRKVVTHGCIVSTIKLFLPDGMEARLRSDDVIHAPLPSPVDKVAANTPSMYSQELFQLSQYLQEALHREQMLEQKLATLQRLLAITQEASDTSWQALIDEDRLLSRLEVMGNQLQACSKNQTEDSLRKELVALQEDKHSYETTAKESLRRVLQEKIEVVRKLSEVERSLSNTEDECTHLREMNERTQEELRELANKYNGAVNEIKDLSDKLKAAEGKQEEIQQKGQAEKKELQAKIDDMEEKEQELQAKIEALQADNDFTNERLTALQVVRLEPLQEKTLKECSSLGGIQVDDFLPKINGSTEKEERLLSKSGGDCTFIHQFIECQKKKLMVQGHLTKVVEESKLSKEENQAKAKESDLSDTLSPSKEKSSDDTTDDAQMDEQDLNEPLAKVSLLKDDDLQGTQAETEAKQDTQHLRKELVEAQELARASKQKCFDLQAALLEEERKAYRNQVEESAKQIQVLQVVQLQRLHMDMENLQEEKDTEISSTRDKLLSAQDEILLLHQAAAKAVSERDTDFMSLQEELKKVRAELEGWRKAASEYEEEIRSLQSTFQLRCQQCEVQQREEATRLQGGELEKLKKEWDVLENECRSLKKENVLLSSELQRQEKELHNNSQKQSLELTSDLSILQMTRKELENQMGSLKEQHLRDEADLKTLLSKAENQAKDVQKEYEKTQTVLSELKLKFEMTEQEKQSITDELKQCKDNLKLLREKGNNKPWPWMPMVAALVAVTAMVLYVPGLARASP
B3: the binding result is “binds”.

B4: striatin3 (protein, UniProt P58405 1-794)
chain: MDELAGGGGGQGMAVPPRPQQGPGGNLSLPPGANGAPGGGGPPAAETAGPPAGPELSRPQQYTIPGILHYIQHEWARFEMERAHWEVERAELQARIAFLQGERKGQENLKKDLVRRIKMLEYALKQERAKYHKLKYGTELNQGDLKMPTFESEETKDAEAPPAQNSQLTWKQGRQLLRQYLQEVGYTDTILDVRSQRVRSLLGLSNSEPNGSIEAKNLEQILNGGESPKQKGQEIKRPSGDVLETFNFLENADDSDEEENDMIEGIPEGKDKLRIHKHKIGNEGLAADLTDDPDTEEALKEFDFLVTAEDGEGAGEARSSGDGTEWDKDDLSPTAEVWDVDQGLMSKLKEQYKKERKGKRGAKRVNRTNLCDMITDLGDDELPHIPSGIINQSRSASTRMTDHEGSRAEEAEPITFPSGGGKSFIMGSDDVLLSVLGLGDLADLTVTNDADYSYDLPANKDALRKTWNPKYTLRSHFDGVRALAFHPVEPVLVTASEDHTLKLWNLQKTVPAKKSASLDVEPIYTFRAHIGPVLSLAISSNGEQCFSGGIDATIQWWNMPSPNVDPYDTYESHVLAGTLVAHTDAVWGLAYSGIKNQLLSCSADGTIRLWNPQEKLPCICTYNGDKEHGIPTSVDFIGCDPAHMVTSFNTGSAIIYDLETSQSLVMLSSQVDSGLQSSNHINRVVSHPTLPVTITAHEDRHIKFFDNKTGKMIHSMVAHLDAVTSLAVDPNGIYLMSGSHDCSIRLWNLDSKTCVQEITAHRKKLDESIYDVAFHPSKAYIASAGADALAKVFV
In the case of B4, the binding result is reported as “binds”.

B5: Mps one binder kinase activator-like 4 (protein, UniProt Q9QYW3 1-225)
chain: MVMAEGTAVLRRNRPGTKAQDFYNWPDESFDEMDSTLAVQQYIQQNIRADCSNIDKILEPPEGQDEGVWKYEHLRQFCLELNGLAVKLQSECHPDTCTQMTATEQWIFLCAAHKTPKECPAIDYTRHTLDGAACLLNSNKYFPSRVSIKESSVAKLGSVCRRIYRIFSHAYFHHRQIFDEYENETFLCHRFTKFVMKYNLMSKDNLIVPILEEEVQNSVSGESEA
Turning to B5, the binding entry is given as “binds”.
